From patent US8993515B2 (Valorisation-Recherche, Limited Partnership, priority 2012, dated 2015) come the findings set out here.

Series [1] is described as follows: general procedure: Fmoc solid-phase peptide synthesis; Polystyrene Rink Amide resin (0.64 mmol/g, 75-100 mesh); HBTU, DIEA. The conditions noted are these: whole synthesis; for crude HPLC purity / final HPLC purity: 214 nm; for final purity (method not given): analytical LCMS and HPLC, C18 Phenomenex Gemini column.
The nature of series [2]: peptide synthesis. The following applies: whole synthesis.

Where only a bound is given, the exact number is not on record here.

For the substance His-D-Trp-Ala-Nai-D-Phe-Lys-NH2, in series [1], the “crude HPLC purity” value was determined as 14% and the “final HPLC purity” value came to 99%. Further, the isolated yield in series [1] (on Fmoc loading of Rink amide) is 6%.

As for His-D-Trp-Nai-Trp-D-Phe-Lys-NH2, in series [1], the “crude HPLC purity” value came out at 29% and the “final HPLC purity” value was found to be 99%. Besides, the isolated yield in series [1] (on Fmoc loading of Rink amide) was 5%.

With His-D-Trp-Nap-Trp-D-Phe-Lys-NH2, in series [2], the “crude HPLC purity” value is given as 21%, the “final HPLC purity” value came out at 99% and the isolated yield was found to be 7%.

For Nad-D-Trp-Ala-Trp-D-Phe-Lys-NH2, in series [1], the “crude HPLC purity” value was found to be 16% and the “final HPLC purity” value amounted to 98%. The isolated yield in series [1] (on Fmoc loading of Rink amide) was 4%.

In the case of “His-D-Trp-Ala-(N-amino-4-methyl-imidazolin-2-one)-D-Phe-Lys-NH2”, the “final purity (method not given)” value in series [1] is on record as above 99%. Also, in series [1] (overall), the isolated yield was 6%.

Take His-D-Trp-Ala-Nad-D-Phe-Lys-NH2: in series [1], the “crude HPLC purity” value is recorded as 20% and the “final HPLC purity” value came to 99%. In series [1] (on Fmoc loading of Rink amide), this substance showed an isolated yield of 3%.

As to “His-D-Trp-Ala-(N-amino-4-methyl-imidazolin-2-one)-L-Phe-Lys-NH2”, the “final purity (method not given)” value in series [1] is above 99%. This substance also came in with an isolated yield in series [1] (overall) of 4%.

On to His-Nap-Ala-Trp-D-Phe-Lys-NH2, for which, in series [1], the “crude HPLC purity” value is recorded as 37% and the “final HPLC purity” value is 99%. In addition, in series [1] (on Fmoc loading of Rink amide), the isolated yield came out at 9%.

For His-Nai-Ala-Trp-D-Phe-Lys-NH2, in series [1], the “crude HPLC purity” value turned out to be 26% and the “final HPLC purity” value was 96%. Moreover, the isolated yield in series [1] (on Fmoc loading of Rink amide) amounted to 7%.

Regarding His-D-Trp-Ala-Nap-D-Phe-Lys-NH2, in series [1], the “crude HPLC purity” value was 29% and the “final HPLC purity” value is 99%. The substance also returned an isolated yield in series [1] (on Fmoc loading of Rink amide) of 11%.

As to His-D-Trp-Ala-Trp-Nap-Lys-NH2, in series [1], the “crude HPLC purity” value was found to be 8% and the “final HPLC purity” value worked out at 99%. This substance came in with an isolated yield in series [1] (on Fmoc loading of Rink amide) of 2%.

As for “D-Arg-D-Tyr-Nap-D-Val-D-Glu-D-Leu-D-Ala-NH2”, in series [1], the “crude HPLC purity” value is given as 49% and the “final HPLC purity” value came out at 99%. The isolated yield in series [1] (on Fmoc loading of Rink amide) was 19%.

As for “D-Arg-D-Tyr-Nad-D-Val-D-Glu-D-Leu-D-Ala-NH2”, in series [1], the “crude HPLC purity” value is listed as 19% and the “final HPLC purity” value is given as 99%. Besides, the isolated yield in series [1] (on Fmoc loading of Rink amide) was 5%.

As for Nap-D-Trp-Ala-Trp-D-Phe-Lys-NH2, in series [1], the “crude HPLC purity” value is 42% and the “final HPLC purity” value worked out at 95%. Moreover, the isolated yield in series [1] (on Fmoc loading of Rink amide) came to 5%.

Regarding “D-Arg-D-Tyr-Nai-D-Val-D-Glu-D-Leu-D-Ala-NH2”, in series [1], the “crude HPLC purity” value is given as 53% and the “final HPLC purity” value worked out at 99%. The isolated yield in series [1] (on Fmoc loading of Rink amide) was determined as 21%.
